Earlier results in patent publication US20050000529A1, “Method and compositions for imparting cooling effect to tobacco products” (priority 2001, published 2005).
Some results were stated once for a whole list of compounds, not compound by compound.

Conditions: taste testing; comparison with related compounds

CCN(CC)C1=CCC(C)C1=O (stereo not shown) [Compound 6, 5-methyl-2-diethylamino-2-cyclopenten-1-one]
cooling activity (in words): significant decrease in cooling activity

CC1CCC=C(N2CCCC2)C1=O (stereo not shown) [Compound 18, 6-methyl-2-(1-pyrrolidinyl)-2-cyclohexen-1-one]
cooling activity (in words): significant decrease in cooling activity

CC1=C(N2CCCCC2)C(=O)CC1 [Compound 3, 3-methyl-2-(1-piperidinyl)-2-cyclopenten-1-one]
cooling activity (in words): significant decrease in cooling activity

CC1CC=C(N2CCCCC2)C1=O (stereo not shown) [Compound 5, 5-methyl-2-(1-piperidinyl)-2-cyclopenten-1-one]
cooling activity (in words): significant decrease in cooling activity

CCCCN(CCCC)C1=CCC(C)C1=O (stereo not shown) [Compound 7, 5-methyl-2-dibutylamino-2-cyclopenten-1-one]
cooling activity (in words): significant decrease in cooling activity

CC1=C(N2CCCC2)C(=O)CCC1 [Compound 16, 3-methyl-2-(1-pyrrolidinyl)-2-cyclohexen-1-one]
cooling activity (in words): significant decrease in cooling activity

CCN(CC)C1=C(C)CCC1=O [Compound 4, 3-methyl-2-diethylamino-2-cyclopenten-1-one]
cooling activity (in words): significant decrease in cooling activity
